Data as given in US20100197710A1, “Methods Of Activating IRS-1 And AKT” (MELIOR PHARMACEUTICALS I, INC., priority 2007, published 2010).

Assay: Effect on blood insulin, leptin and corticosterone level
Assay type: in vivo
Conditions: mice, one hour after administration, FIG. 1

Cc1cccc(Oc2cnc(=O)[nH]c2)c1 [Compound 102]
did not effect: blood level of corticosterone | blood level of insulin | blood level of leptin
